Assay results published in the supplement of paper PMC4604168 (melanoma cell lines).
Some of the results follow. Repeats are few or missing, and single values can be far off.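 Imaging used 1,536-well plates; nuclei positive for cleaved PARP by antibody were divided by total DNA-stained nuclei to yield the apoptosis fraction. Doses for screening kept most cells viable, and cell lines differ markedly in resting and induced cleaved-PARP levels.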

System: LOXIMVI
Assay: cleaved PARP positive nuclei fraction relative to DMSO control; melanoma cells; higher = more apoptosis
Conditions: library dose: low library concentration; 72 h

Row | Structure (SMILES) | cleaved PARP positive nuclei fraction
1 | C[As](C)SC[C@H](NC(=O)CC[C@H](N)C(=O)O)C(=O)NCC(=O)O [Darinaparsin] + COc1cc(N2CCC(N3CCN(C)CC3)CC2)ccc1Nc1ncc(Cl)c(Nc2ccccc2S(=O)(=O)C(C)C)n1 [NVP-TAE684] (first compound 0.4 µM, partner dose 0.08 µM) | 138%
2 | C[C@]12O[C@H](C[C@]1(O)CO)n1c3ccccc3c3c4c(c5c6ccccc6n2c5c31)CNC4=O [Lestaurtinib] + Cn1nnc2c(C(N)=O)ncn2c1=O [temozolomide] (first compound 0.004 µM, partner dose 2 µM) | 129%
3 | C[As](C)SC[C@H](NC(=O)CC[C@H](N)C(=O)O)C(=O)NCC(=O)O [Darinaparsin] + COc1ccc(Cl)c(Nc2nc3ccccc3nc2NS(=O)(=O)c2cccc(NC(=O)C(C)(C)N)c2)c1 [XL147] (first compound 0.4 µM, partner dose 0.8 µM) | 92.3%
4 | COCC[n+]1c2c(n(Cc3cnccn3)c1C)C(=O)c1ccccc1C2=O + O=C(Oc1ccc([N+](=O)[O-])cc1)N1CCC(C(O)(c2ccc3c(c2)OCO3)c2ccc3c(c2)OCO3)CC1 [JZL184] (first compound 0.0004 µM, partner dose 1 µM) | 89.7%
5 | COc1cc([C@@H]2c3cc4c(cc3[C@@H](O[C@@H]3O[C@@H]5CO[C@@H](C)O[C@H]5[C@H](O)[C@H]3O)[C@H]3COC(=O)[C@H]23)OCO4)cc(OC)c1O [etoposide] + C[As](C)SC[C@H](NC(=O)CC[C@H](N)C(=O)O)C(=O)NCC(=O)O [Darinaparsin] (first compound 0.02 µM, partner dose 0.4 µM) | 50.1%
6 | C[As](C)SC[C@H](NC(=O)CC[C@H](N)C(=O)O)C(=O)NCC(=O)O [Darinaparsin] + Oc1cc(-c2nc(-c3ccccc3)[nH]c2-c2ccncc2)ccc1Cl [L779450] (first compound 0.4 µM, partner dose 0.2 µM) | 21%
7 | N.N.[Cl][Pt][Cl] [cisplatin] + Oc1cc(-c2nc(-c3ccccc3)[nH]c2-c2ccncc2)ccc1Cl [L779450] (first compound 1.6 µM, partner dose 0.2 µM) | 216%
8 | Cc1nc(Nc2ncc(C(=O)Nc3c(C)cccc3Cl)s2)cc(N2CCN(CCO)CC2)n1 [dasatanib] + O=C(Oc1ccc([N+](=O)[O-])cc1)N1CCC(C(O)(c2ccc3c(c2)OCO3)c2ccc3c(c2)OCO3)CC1 [JZL184] (first compound 0.004 µM, partner dose 1 µM) | 98.5%
9 | CC(=O)O[C@@]12CO[C@@H]1C[C@H](O)[C@@]1(C)C(=O)[C@H](O)C3=C(C)[C@@H](OC(=O)[C@H](O)[C@@H](NC(=O)OC(C)(C)C)c4ccccc4)C[C@@](O)([C@@H](OC(=O)c4ccccc4)[C@H]21)C3(C)C [Docetaxel] + C/C(O)=C(\C#N)C(=O)Nc1cc(Br)ccc1Br [LFM-A13] (first compound 0.0001 µM, partner dose 2 µM) | 274%
10 | C[C@]12O[C@H](C[C@]1(O)CO)n1c3ccccc3c3c4c(c5c6ccccc6n2c5c31)CNC4=O [Lestaurtinib] + Cc1nc(Nc2ncc(C(=O)Nc3c(C)cccc3Cl)s2)cc(N2CCN(CCO)CC2)n1 [dasatanib] (first compound 0.004 µM, partner dose 0.004 µM) | 131%
11 | C[C@]12O[C@H](C[C@]1(O)CO)n1c3ccccc3c3c4c(c5c6ccccc6n2c5c31)CNC4=O [Lestaurtinib] + CCc1ccc(CCOc2ccc(CC3SC(=O)NC3=O)cc2)nc1 [pioglitazone] (first compound 0.004 µM, partner dose 2 µM) | 89.1%
12 | C[As](C)SC[C@H](NC(=O)CC[C@H](N)C(=O)O)C(=O)NCC(=O)O [Darinaparsin] + Cn1cc(/C=C2\C(=O)Nc3cccnc32)c2ccccc21 [GW441756] (first compound 0.4 µM, partner dose 0.4 µM) | 31.4%
13 | O=C(CCCCCCC(=O)Nc1ccccc1)NO [vorinostat] + O=C(Oc1ccc([N+](=O)[O-])cc1)N1CCC(C(O)(c2ccc3c(c2)OCO3)c2ccc3c(c2)OCO3)CC1 [JZL184] (first compound 0.08 µM, partner dose 1 µM) | 35.7%
14 | C=CCn1c(=O)c2cnc(Nc3ccc(N4CCN(C)CC4)cc3)nc2n1-c1cccc(C(C)(C)O)n1 + C/C(O)=C(\C#N)C(=O)Nc1cc(Br)ccc1Br [LFM-A13] (first compound 0.02 µM, partner dose 2 µM) | 107%
15 | Cc1cc(SCc2sc(-c3ccc(C(F)(F)F)c(F)c3)nc2C)ccc1OCC(=O)O + COc1cc2ncnc(Nc3ccc(Oc4ccccc4)cc3)c2cc1OC [SrcI1] (first compound 2 µM, partner dose 2 µM) | 67.9%
16 | Cn1cc(C2=C(c3cn(C4CCN(Cc5ccccn5)CC4)c4ccccc34)C(=O)NC2=O)c2ccccc21 [Enzastaurin] + CC(=O)O[C@@]12CO[C@@H]1C[C@H](O)[C@@]1(C)C(=O)[C@H](O)C3=C(C)[C@@H](OC(=O)[C@H](O)[C@@H](NC(=O)OC(C)(C)C)c4ccccc4)C[C@@](O)([C@@H](OC(=O)c4ccccc4)[C@H]21)C3(C)C [Docetaxel] (first compound 0.8 µM, partner dose 0.0001 µM) | 176%
17 | O=C(/C=C/c1cccnc1)NCCCCC1CCN(C(=O)c2ccccc2)CC1 + C[As](C)SC[C@H](NC(=O)CC[C@H](N)C(=O)O)C(=O)NCC(=O)O [Darinaparsin] (first compound 0.01 µM, partner dose 0.4 µM) | 38.9%
18 | C#Cc1cccc(Nc2ncnc3cc(OCCOC)c(OCCOC)cc23)c1 [erlotinib] + Cc1cc(SCc2sc(-c3ccc(C(F)(F)F)c(F)c3)nc2C)ccc1OCC(=O)O [GW0742] (first compound 0.8 µM, partner dose 2 µM) | 64.2%
19 | C[As](C)SC[C@H](NC(=O)CC[C@H](N)C(=O)O)C(=O)NCC(=O)O [Darinaparsin] + COc1ccc(-c2ccc3c(N4CCOCC4)nc(N4C[C@@H](C)O[C@@H](C)C4)nc3n2)cc1CO [KU0063794] (first compound 0.4 µM, partner dose 0.02 µM) | 64.6%
20 | Cn1cc(C2=C(c3cn(C4CCN(Cc5ccccn5)CC4)c4ccccc34)C(=O)NC2=O)c2ccccc21 [Enzastaurin] + C[C@@H](Oc1cc(-c2cnn(C3CCNCC3)c2)cnc1N)c1c(Cl)ccc(F)c1Cl [Crizotinib] (first compound 0.8 µM, partner dose 0.2 µM) | 105%
21 | COc1ccc(C2=N[C@@H](c3ccc(Cl)cc3)[C@@H](c3ccc(Cl)cc3)N2C(=O)N2CCNC(=O)C2)c(OC(C)C)c1 [Nutlin-3] + O=C(Oc1ccc([N+](=O)[O-])cc1)N1CCC(C(O)(c2ccc3c(c2)OCO3)c2ccc3c(c2)OCO3)CC1 [JZL184] (first compound 0.1 µM, partner dose 1 µM) | 37.5%

Looked up one by one from the list above:
Row | Structure (SMILES) | cleaved PARP positive nuclei fraction
9 | CC(=O)O[C@@]12CO[C@@H]1C[C@H](O)[C@@]1(C)C(=O)[C@H](O)C3=C(C)[C@@H](OC(=O)[C@H](O)[C@@H](NC(=O)OC(C)(C)C)c4ccccc4)C[C@@](O)([C@@H](OC(=O)c4ccccc4)[C@H]21)C3(C)C [Docetaxel] + C/C(O)=C(\C#N)C(=O)Nc1cc(Br)ccc1Br [LFM-A13] (first compound 0.0001 µM, partner dose 2 µM) | 274%
21 | COc1ccc(C2=N[C@@H](c3ccc(Cl)cc3)[C@@H](c3ccc(Cl)cc3)N2C(=O)N2CCNC(=O)C2)c(OC(C)C)c1 [Nutlin-3] + O=C(Oc1ccc([N+](=O)[O-])cc1)N1CCC(C(O)(c2ccc3c(c2)OCO3)c2ccc3c(c2)OCO3)CC1 [JZL184] (first compound 0.1 µM, partner dose 1 µM) | 37.5%
